In PMC3328499 (PLoS ONE, 2012):
Results are given in words; binding and its absence hold for the method and conditions named. Some binding calls cover weakened binding; strength is not graded here.

Biological target: MalK with a His6-tag at the C-terminus (E. coli K12) (UniProt P68187)
Experiment: co-purification; MalF, MalG and MalK-His6 co-expressed in E. coli BL21; membranes solubilised in 1% DDM; Ni-NTA Sepharose (imidazole gradient) in 0.01% DDM, then gel filtration (Superdex 200)

binding: binds
Substance: MalF (from UniProt P02916 1-514)
